Paper PMC11071649, “Synthesis and Selective Anticancer Activity Evaluation of 2-phenylacrylonitrile Derivatives as Tubulin Inhibitors” (Current Medicinal Chemistry, 2024)

How the values were obtained:
Type in all cases: cell-based
MCF-7 breast cancer cell = assay: MTT anti-proliferative assay, MCF-7; details: Homo sapiens, MCF7, 48 h, read-out: IC50 MCF-7
Experimental: (§1) The anti-proliferation activities of the synthesized analogs were assessed by an in vitro MTT assay conducted on thirteen human cell lines. Their cytotoxic activities were evaluated by measuring the inhibition of net cell growth. […]
(§2) 1.6. Cell lines and cell culture
(§3) MTT was purchased from Sigma-Aldrich Co. (St. Louis, MO, USA). The PI and Annexin V-FITC apoptosis detection kit were purchased from Invitrogen (Eugene, OR, USA). All human cell lines were used in this study. […]
(§4) cell, MCF-7 breast cancer cell, MCF-10A normal breast cell, Raji B lymphoblastoid cell and diffuse large B-cell lymphoma SU-DHL-10 cell were initially purchased from American Type Culture Collection (ATCC, Manassas, Virginia). media, DMEM, and FBS were provided from Gibco Company.
(§5) 1.7. Cell growth inhibition assay (MTT assay)
(§6) The experiment was carried out according to the method of reference. Briefly, cells were plated in 96-well plates at a den- […]
(§7) the anti-proliferative activities were determined by MTT assay. […]
(§8) (Becton-Dickinson, Franklin Lakes, NJ). […]

L-02 normal liver cell = assay: MTT assay, L-02 normal cells; details: Homo sapiens, 48 h, read-out: IC50 L-02
Experimental: as §1, §2, §3, §4, §5, §6, §7, §8

[1] = test system: BEL-7402 liver cancer cell; assay: MTT anti-proliferative assay, BEL-7402; details: Homo sapiens, Bel-7402, 48 h, read-out: IC50 BEL-7402
Experimental: as §1, §2, §3, §4, §5, §6, §7, §8

[2] = test system: Raji B lymphoblastoid cell; assay: MTT anti-proliferative assay, Raji; details: Homo sapiens, 48 h, read-out: IC50 Raji
Experimental: as §1, §2, §3, §4, §5, §6, §7, §8

[3] = test system: diffuse large B-cell lymphoma SU-DHL-10 cell; assay: MTT anti-proliferative assay, SU-DHL-10; details: Homo sapiens, SU-DHL10, 48 h, read-out: IC50 SU-DHL-10
Experimental: as §1, §2, §3, §4, §5, §6, §7, §8

[4] = test system: MGC-803 late stage differentiation gastric cancer cell; assay: MTT anti-proliferative assay, MGC-803; details: Homo sapiens, MGC-803, 48 h, read-out: IC50 MGC-803
Experimental: as §1, §2, §3, §4, §5, §6, §7, §8

In the case of `COc1cc2c(c(OC)c1OC)-c1ccc(OC)c(=O)cc1[C@@H](NC(C)=O)CC2` [Colchicine, colchicine, reference compound], the IC50 (MCF-7 breast cancer cell) is reported as 600 ± 300 nM, the IC50 (L-02 normal liver cell) is reported as 400 ± 20 nM and the IC50 [1] is reported as 20 ± 1 nM. The IC50 [2] was 300 ± 100 nM, the IC50 [3] was 290 ± 1 nM and the IC50 [4] was 130 ± 10 nM.
